Measurements reported in PubChem BioAssay AID743454 (Peter MacCallum Cancer Centre, 2014).
The deposit covers about 18,000 reagents; this is a part drawn at random. Of all reagents, 450 (2.5%) are marked active. 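Single biological run; no consistent viability z cut-off exists, so the class columns, not z-scores, define the calls.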 Reagents against one gene are numbered here.

Purpose: 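Genes whose loss kills vorinostat-resistant colon cancer cells under vorinostat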 (primary screen)
System: human HCT116-VR colon cancer cells, selected for vorinostat resistance
Knock-down reagent: siRNA pool against human genes, 40 nM siRNA pool
Timing: vorinostat for 24 h, read-out about 72 h after transfection
Treatment: vorinostat at 2.5 µM final
Detection: 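Two measures, CellTiter-Fluor viability and luminescent caspase 3/7 activity, each as fold change against same-plate mock wells, mean of duplicates, then screen-wide robust z-score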
Direction: viability robust z-score: higher = more viable cells than screen typical; caspase robust z-score: higher = more caspase 3/7 activity than screen typical
Active means: 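a knock-down is a hit when classed RV1 or RV2 for lowered viability, or CA1 or CA2 for caspase activation; those lethal without drug were dropped; hits were retested singly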

| gene knocked down | reagent no. | viability hit class | caspase hit class | viability robust z-score | caspase robust z-score | Outcome |
| --- | --- | --- | --- | --- | --- | --- |
| SCYL2 (SCY1 like pseudokinase 2) | 1 | no change | no change | -0.15 | -0.32 | inactive |
| NAP1L5 (nucleosome assembly protein 1 like 5) | 1 | no change | no change | -1.21 | -0.83 | inactive |
| TRIP4 (thyroid hormone receptor interactor 4) | 1 | no change | no change | -0.22 | -0.96 | inactive |
| MTG2 (mitochondrial ribosome associated GTPase 2) | 1 | no change | no change | -1.02 | 2.52 | inactive |
| SRP72 (signal recognition particle 72) | 1 | no change | no change | -2.62 | -0.31 | inactive |
| C4A (complement C4A (Chido/Rodgers blood group)) | 1 | no change | no change | -1.2 | -0.76 | inactive |
| CDK2AP2 (cyclin dependent kinase 2 associated protein 2) | 1 | no change | no change | -0.36 | -0.16 | inactive |
| GRM4 (glutamate metabotropic receptor 4) | 1 | no change | no change | -1.07 | -0.32 | inactive |
| OR4A47 (olfactory receptor family 4 subfamily A member 47) | 1 | no change | no change | 0.26 | 1.68 | inactive |
| NRGN (neurogranin) | 1 | no change | no change | -0.07 | 0.73 | inactive |
| LYSMD1 (LysM domain containing 1) | 1 | no change | no change | -0.64 | -1.15 | inactive |
| ACSBG1 (acyl-CoA synthetase bubblegum family member 1) | 1 | no change | no change | 0.48 | -0.86 | inactive |
| ZNF790 (zinc finger protein 790) | 1 | no change | no change | -1.12 | 1.66 | inactive |
| ERCC6 (ERCC excision repair 6, chromatin remodeling factor) | 1 | no change | no change | -0.77 | 2.28 | inactive |
| QPRT (quinolinate phosphoribosyltransferase) | 1 | no change | no change | -0.5 | 0.28 | inactive |
| FOLH1 (folate hydrolase 1) | 1 | no change | no change | -1.73 | 4.52 | inactive |
| NIPSNAP3B (nipsnap homolog 3B) | 1 | no change | no change | -0.8 | -1.09 | inactive |
| DGKQ (diacylglycerol kinase theta) | 1 | no change | no change | -0.7 | -0.88 | inactive |
| ATN1 (atrophin 1) | 1 | no change | no change | -0.6 | 1.74 | inactive |
| NKAIN1 (sodium/potassium transporting ATPase interacting 1) | 1 | no change | no change | -1.19 | -0.15 | inactive |
| TSC22D3 (TSC22 domain family member 3) | 1 | no change | no change | -0.29 | -0.5 | inactive |
| NUDCD2 (NudC domain containing 2) | 1 | no change | no change | 0.28 | -0.52 | inactive |
| GSDME (gasdermin E) | 1 | no change | no change | -0.48 | -0.5 | inactive |
| ZFP37 (ZFP37 zinc finger protein) | 1 | no change | no change | 0.21 | 0.3 | inactive |
| QSOX1 (quiescin sulfhydryl oxidase 1) | 1 | no change | CA2 (caspase activation) | -2.59 | 6.33 | active |
| ZNF92 (zinc finger protein 92) | 1 | no change | no change | 1.36 | 1.3 | inactive |
| JCHAIN (joining chain of multimeric IgA and IgM) | 1 | no change | no change | -1.07 | 3.67 | inactive |
| PAX2 (paired box 2) | 1 | no change | no change | 0.34 | -0.5 | inactive |
| TXNRD3 (thioredoxin reductase 3) | 1 | no change | no change | 0.74 | -0.5 | inactive |
| TXNRD3 (thioredoxin reductase 3) | 2 | no change | no change | 0.28 | 0.48 | inactive |
| ANAPC5 (anaphase promoting complex subunit 5) | 1 | no change | no change | -1.06 | -0.32 | inactive |
| SPTLC2 (serine palmitoyltransferase long chain base subunit 2) | 1 | no change | no change | -0.72 | 0.67 | inactive |
| MFSD1 (major facilitator superfamily domain containing 1) | 1 | no change | no change | 1.35 | -1.07 | inactive |
| C3orf18 (chromosome 3 open reading frame 18) | 1 | no change | no change | 0.23 | 2.28 | inactive |
| WAPL (WAPL cohesin release factor) | 1 | no change | no change | -0.38 | -0.41 | inactive |
| CD79A (CD79a molecule) | 1 | no change | CA2 (caspase activation) | -0.61 | 6.58 | active |
| CAGE1 (cancer antigen 1) | 1 | no change | no change | 0.39 | -0.03 | inactive |
| KCNIP2 (potassium voltage-gated channel interacting protein 2) | 1 | no change | no change | 0.08 | 1 | inactive |
| FAM229B (family with sequence similarity 229 member B) | 1 | no change | no change | -0.62 | -0.44 | inactive |

Active calls, among the entries above:
| gene knocked down | reagent no. | viability hit class | caspase hit class | viability robust z-score | caspase robust z-score | Outcome |
| --- | --- | --- | --- | --- | --- | --- |
| QSOX1 (quiescin sulfhydryl oxidase 1) | 1 | no change | CA2 (caspase activation) | -2.59 | 6.33 | active |
| CD79A (CD79a molecule) | 1 | no change | CA2 (caspase activation) | -0.61 | 6.58 | active |
